# Source: PubChem BioAssay AID1508600 (Functional Genomics Laboratory (NCATS/FGL), 2020)
# Out of some 53,000 sequences screened, about 3,700 (7%) were called active.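 Rule for the calls: active = gene knockdowns whose robust z-score for IL-1 alpha signal is at least 2 or at most -2, so actives lie on both sides; inactive = the rest.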 This is one part of the list.
# Assay: Components of the Cytosolic LPS Sensing Pathway: Gene Identification via Genome-wide siRNA Screen;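 note: robust z of the log signal after scaling to non-targeting control siRNA wells of the plate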
# Settings: RAW264.7 macrophages, IL-1a HTRF, actives lie on both sides, screened at 100 nM (by protocol), cells primed 5 h with Pam3CSK4 first
# How it was run: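 Using IL-1a HTRF as read-out, the screen measured release from RAW264.7 cells after 48h siRNA knockdown (100 nM), 5 h Pam3CSK4 priming and 24 h cytosolic LipidA. Values were expressed relative to negative-control wells as robust z-scores.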
row,Sequence,z-score
1,GCGAUCUAGUGAAGAUGUGTT against Rapgef4,inactive: -0.82
2,GGAAGACUGCACAGAUGUGTT against Ramp1,inactive: -0.0448
3,GGAAAGACUAUGCCCAUCUTT against 4930474M22Rik,inactive: 0.984
4,CCACAUCAAGUCUAUCAUCTT against Ryr1,inactive: -1.19
5,GCCGGUCCUUAGAGUUGUUTT against Olfr506,inactive: -0.67
6,GGAGUACAUUCCCUCUACCTT against Nat8f1,inactive: 1
7,GCUAAAGUUGAUUGGAGAGTT against Rps9,inactive: -0.262
8,GGUUAAGCUACAAAACAACTT against Golm2,inactive: -1.01
9,GGUGAAGAAUCCACCUGAUTT against Mpzl2,inactive: -0.464
10,GGAGAAAUUAGAGUGAUCGTT against Pcdha1,inactive: -0.698
11,GGCAGCGAAAAGUCAGAUGTT against Sars,inactive: 1.52
12,GGAGGUGAACCAUAGAGAGTT against Csrnp2,inactive: 1.12
13,GGAGUAUCUGCUGUUCAGUTT against Gabpb1,inactive: -0.267
14,GGAGGAAGACCUUCAGAGATT against Ell2,inactive: -0.842
15,AGGAAUGCCCAGGUCUCAGTT against Lst1,inactive: -1.07
16,GGUUUGAGGAGUUAGGUUCTT against Sdhd,inactive: -0.488
17,GGGCACAGACAUGUUUGAGTT against Padi3,inactive: -1.35
18,GGAAAUGACCAAAGAGGCUTT against Vash1,inactive: -1.21
19,GCUCUUCUUACCACUGUAGTT against Wdfy3,inactive: 1.88
20,GGUGCUGAACAAGACCAAGTT against Cyp27a1,inactive: 1.95
21,GGAACAAGCCCAAGAAGAATT against Mxd1,inactive: -0.79
22,GGUUUUCUCACCAUUAUUGTT against Asb13,inactive: -0.617
23,GCUAAGUAACUCUUUUAGGTT against Clock,inactive: -0.274

row,Sequence,z-score
1,GCAACUGCUUCUAAUAAGATT against P3h3,inactive: 0.674
2,GGCACUUCACAGACUUAGUTT against Selp,inactive: -0.682
3,GGCCCUCUGAGAUUAAUGUTT against Nfkbid,active: 2.58
4,CGAGUUUGAGUACCUGAAATT against Akt1,inactive: -0.291
5,CCUGCAUCGUACGCUACUUTT against Pcgf2,inactive: -1.83
6,CCCUGACCUAUUAAAAGAUTT against Cyp2b19,inactive: 0.82
7,GCUUAUUUCGCCUAUGUGGTT against Slc24a2,inactive: -1.11
8,GGCACUUCAACAGCAGUUATT against Cep295,inactive: -1.27
9,GGAGACUUUCAGGAGAUUUTT against Carnmt1,inactive: 1.29
10,GGCUGUCGUCAUUGAAGGATT against Ankrd27,inactive: -0.771
11,GGCUGUUUGCCAAAAAAAATT against Ppp1r16a,inactive: -0.36
12,CGGGCUAUCUGGAACUAUATT against Sesn1,inactive: -0.466
13,CCAUCCAGAUUUAAUAACCTT against Dcbld1,inactive: -0.955
14,GCUGACACAAAACGCAGUCTT against Kcna4,inactive: 0.153
15,GGUGUCCCAGAGUGUAUAATT against Olfr1499,inactive: -0.697
16,GGAGGUCUACCAUUUCACCTT against Cops4,inactive: -0.708
17,GCACAAGUUCAGAAAUGAATT against Sp3os,inactive: 0.521
18,GGCCUACCAGAGAUUUAGATT against Ptgfr,inactive: 1.16
19,CGGCGGAUCUAUGAAGUAGTT against Mrpl1,inactive: 0.105
20,CGGCUGUGUGCAUUUAAAGTT against Bmpr2,inactive: 0.616
21,CCCUGAUGACAGAAGAAUCTT against Tyms,inactive: -0.802
22,GGUUACAGAGCAAAGUCCUTT against Zfp638,inactive: -0.555
23,GGCCAAGUCUGGAAUCACUTT against Angel2,active: -2.42

# Three entries picked at random from the list so far, as already listed:
row,Sequence,z-score
9,GGAGACUUUCAGGAGAUUUTT against Carnmt1,inactive: 1.29
7,GCUUAUUUCGCCUAUGUGGTT against Slc24a2,inactive: -1.11
20,CGGCUGUGUGCAUUUAAAGTT against Bmpr2,inactive: 0.616

# Carrying on:

row,Sequence,z-score
1,GGAUAAGAAACACAAGAAGTT against Srrm1,active: 2.04
2,GAGCCAAAUCAGGAACAGCTT against Trim29,inactive: 1.4
3,GCAACGACUCUAAUGACUUTT against Slc38a1,inactive: -0.515
4,CAGUUCCGUACAGUUUUACTT against H3c1,inactive: 1.16
5,GCUGAUUUCCAAAGAUAAUTT against Glycam1,inactive: -1.08
6,CCACAUCUAGGCAAGGAACTT against Pmel,inactive: -0.909
7,GGGACCCAGACAUUACAUGTT against Cldn6,inactive: 0.445
8,CCCUCAAAUAACAUCCAGGTT against Sh3d21,inactive: -1.93
9,GGAGCUGAAAAUCCAGCUGTT against Sdsl,inactive: -0.102
10,CCAGAUCGGGAAAAAGGGUTT against Tsn,active: -2.04
11,CGGCUUUGCACCAUACUUATT against Galnt12,inactive: 0.601
12,GCGGACCUUGUCCUAUAACTT against Slc9a2,inactive: -1.5
13,GGACAGAUUUUCACCAUUCTT against Slc1a4,inactive: -0.593
14,GGAAAGAAAUGAAUCAGUATT against Rnf216,inactive: 0.882
15,CGAAGUGGUCAAGUUCUCUTT against Fbxo17,active: -2.09
16,GGCACUUUUGAUUUCAGAUTT against Nrd1,active: 3.52
17,CCUUCUAUUUAUAAGACCUTT against Lrch4,inactive: 1.04
18,GGACUCACUCCUUCCAUCATT against Pphln1,inactive: 0.386
19,GGAUCCAGAAAGUCCAGAUTT against Nt5c3b,inactive: 0.918
20,GGCGAACAACUGGAACGCATT against Snap25,inactive: -0.839
21,GGACUUCACAAGAGUAUUATT against She,inactive: 1.8
22,GCAACUUACUUGAUCUGAATT against Ap2b1,inactive: -0.292
23,GCGAUGAGACAGAUGUCGATT against Tcof1,inactive: -0.0757
